# Assay results as given in the supplement of paper PMC6411743.
# The chains behind the UniProt entries cited, without tags or fusion partners. Where a name states a change or a piece, a line headed by the entry shows the natural chain unless it says otherwise.
# UniProt Q9NQX3: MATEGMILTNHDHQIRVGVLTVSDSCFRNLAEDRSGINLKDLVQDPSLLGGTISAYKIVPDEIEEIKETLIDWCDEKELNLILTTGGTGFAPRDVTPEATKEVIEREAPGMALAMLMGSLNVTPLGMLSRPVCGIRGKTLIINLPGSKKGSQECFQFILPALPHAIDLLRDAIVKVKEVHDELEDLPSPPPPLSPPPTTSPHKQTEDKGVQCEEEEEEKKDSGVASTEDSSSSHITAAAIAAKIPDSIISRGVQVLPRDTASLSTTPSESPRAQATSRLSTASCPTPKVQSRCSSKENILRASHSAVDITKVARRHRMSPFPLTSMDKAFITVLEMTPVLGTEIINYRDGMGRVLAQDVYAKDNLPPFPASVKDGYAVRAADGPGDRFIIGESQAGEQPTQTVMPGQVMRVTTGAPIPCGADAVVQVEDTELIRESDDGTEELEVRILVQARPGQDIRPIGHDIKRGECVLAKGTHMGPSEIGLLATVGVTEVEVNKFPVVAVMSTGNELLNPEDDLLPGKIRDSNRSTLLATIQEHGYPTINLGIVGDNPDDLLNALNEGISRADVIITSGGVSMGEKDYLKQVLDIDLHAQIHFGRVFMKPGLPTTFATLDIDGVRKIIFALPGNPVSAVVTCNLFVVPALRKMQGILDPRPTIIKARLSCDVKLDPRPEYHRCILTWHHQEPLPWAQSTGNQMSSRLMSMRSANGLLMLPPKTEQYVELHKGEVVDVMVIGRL
# UniProt Q9NQR4: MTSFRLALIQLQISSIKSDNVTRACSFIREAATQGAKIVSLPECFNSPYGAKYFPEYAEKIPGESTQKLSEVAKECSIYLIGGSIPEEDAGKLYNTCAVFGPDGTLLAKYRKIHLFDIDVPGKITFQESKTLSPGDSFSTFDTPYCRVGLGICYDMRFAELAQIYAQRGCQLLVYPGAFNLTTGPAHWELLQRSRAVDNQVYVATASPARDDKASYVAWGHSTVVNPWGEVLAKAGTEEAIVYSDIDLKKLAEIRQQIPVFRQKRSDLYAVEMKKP
# UniProt Q9NWV8, whole entry: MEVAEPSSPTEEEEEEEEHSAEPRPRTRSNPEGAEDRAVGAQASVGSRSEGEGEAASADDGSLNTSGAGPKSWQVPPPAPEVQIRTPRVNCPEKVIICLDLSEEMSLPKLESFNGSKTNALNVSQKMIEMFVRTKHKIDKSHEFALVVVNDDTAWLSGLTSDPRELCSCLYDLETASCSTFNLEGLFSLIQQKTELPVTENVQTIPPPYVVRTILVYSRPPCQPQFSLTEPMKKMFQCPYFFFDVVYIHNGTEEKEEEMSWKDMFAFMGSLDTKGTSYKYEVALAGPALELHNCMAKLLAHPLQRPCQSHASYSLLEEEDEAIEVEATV
# UniProt Q9NVP2, whole entry: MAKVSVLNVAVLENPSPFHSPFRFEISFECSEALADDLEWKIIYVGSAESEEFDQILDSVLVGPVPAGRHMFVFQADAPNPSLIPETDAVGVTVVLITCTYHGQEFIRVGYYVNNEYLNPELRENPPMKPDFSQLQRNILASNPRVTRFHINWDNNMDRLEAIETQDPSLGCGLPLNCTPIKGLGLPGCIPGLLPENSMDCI
# UniProt Q9NSB8: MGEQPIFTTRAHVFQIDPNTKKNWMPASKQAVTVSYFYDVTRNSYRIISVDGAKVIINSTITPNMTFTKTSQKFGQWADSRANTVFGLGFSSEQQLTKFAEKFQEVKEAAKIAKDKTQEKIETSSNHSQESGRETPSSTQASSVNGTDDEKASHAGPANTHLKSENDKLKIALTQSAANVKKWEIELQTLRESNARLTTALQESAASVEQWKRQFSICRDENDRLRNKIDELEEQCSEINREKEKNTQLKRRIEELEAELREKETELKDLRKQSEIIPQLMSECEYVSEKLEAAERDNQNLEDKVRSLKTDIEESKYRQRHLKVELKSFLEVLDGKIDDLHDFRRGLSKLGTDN
# UniProt Q9NYR9: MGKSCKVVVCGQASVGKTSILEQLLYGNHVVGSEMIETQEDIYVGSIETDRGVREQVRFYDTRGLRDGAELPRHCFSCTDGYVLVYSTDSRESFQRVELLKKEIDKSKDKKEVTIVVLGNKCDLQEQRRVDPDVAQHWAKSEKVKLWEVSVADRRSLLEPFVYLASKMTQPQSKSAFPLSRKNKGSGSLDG
# UniProt Q9NRG9: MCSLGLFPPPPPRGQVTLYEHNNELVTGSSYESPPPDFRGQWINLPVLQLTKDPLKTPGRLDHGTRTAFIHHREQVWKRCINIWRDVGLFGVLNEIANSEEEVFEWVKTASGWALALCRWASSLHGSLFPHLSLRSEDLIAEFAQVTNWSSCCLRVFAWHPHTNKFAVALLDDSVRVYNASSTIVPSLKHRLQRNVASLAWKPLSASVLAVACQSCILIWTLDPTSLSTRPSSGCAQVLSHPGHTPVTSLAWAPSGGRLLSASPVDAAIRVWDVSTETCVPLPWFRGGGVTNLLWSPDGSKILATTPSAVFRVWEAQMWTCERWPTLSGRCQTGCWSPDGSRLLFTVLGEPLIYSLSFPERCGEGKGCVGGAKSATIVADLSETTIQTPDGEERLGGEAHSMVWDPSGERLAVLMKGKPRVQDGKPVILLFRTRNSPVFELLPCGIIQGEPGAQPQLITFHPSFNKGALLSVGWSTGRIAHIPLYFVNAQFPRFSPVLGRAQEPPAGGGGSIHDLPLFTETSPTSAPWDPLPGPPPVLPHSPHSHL
# UniProt Q9NZ43: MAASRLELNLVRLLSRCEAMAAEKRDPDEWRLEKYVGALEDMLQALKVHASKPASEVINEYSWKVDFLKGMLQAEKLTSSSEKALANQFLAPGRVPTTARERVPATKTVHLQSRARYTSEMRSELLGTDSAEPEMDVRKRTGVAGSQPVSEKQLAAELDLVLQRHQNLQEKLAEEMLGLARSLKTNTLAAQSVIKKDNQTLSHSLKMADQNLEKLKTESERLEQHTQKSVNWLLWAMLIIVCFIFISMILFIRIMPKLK
# UniProt Q9NVI1: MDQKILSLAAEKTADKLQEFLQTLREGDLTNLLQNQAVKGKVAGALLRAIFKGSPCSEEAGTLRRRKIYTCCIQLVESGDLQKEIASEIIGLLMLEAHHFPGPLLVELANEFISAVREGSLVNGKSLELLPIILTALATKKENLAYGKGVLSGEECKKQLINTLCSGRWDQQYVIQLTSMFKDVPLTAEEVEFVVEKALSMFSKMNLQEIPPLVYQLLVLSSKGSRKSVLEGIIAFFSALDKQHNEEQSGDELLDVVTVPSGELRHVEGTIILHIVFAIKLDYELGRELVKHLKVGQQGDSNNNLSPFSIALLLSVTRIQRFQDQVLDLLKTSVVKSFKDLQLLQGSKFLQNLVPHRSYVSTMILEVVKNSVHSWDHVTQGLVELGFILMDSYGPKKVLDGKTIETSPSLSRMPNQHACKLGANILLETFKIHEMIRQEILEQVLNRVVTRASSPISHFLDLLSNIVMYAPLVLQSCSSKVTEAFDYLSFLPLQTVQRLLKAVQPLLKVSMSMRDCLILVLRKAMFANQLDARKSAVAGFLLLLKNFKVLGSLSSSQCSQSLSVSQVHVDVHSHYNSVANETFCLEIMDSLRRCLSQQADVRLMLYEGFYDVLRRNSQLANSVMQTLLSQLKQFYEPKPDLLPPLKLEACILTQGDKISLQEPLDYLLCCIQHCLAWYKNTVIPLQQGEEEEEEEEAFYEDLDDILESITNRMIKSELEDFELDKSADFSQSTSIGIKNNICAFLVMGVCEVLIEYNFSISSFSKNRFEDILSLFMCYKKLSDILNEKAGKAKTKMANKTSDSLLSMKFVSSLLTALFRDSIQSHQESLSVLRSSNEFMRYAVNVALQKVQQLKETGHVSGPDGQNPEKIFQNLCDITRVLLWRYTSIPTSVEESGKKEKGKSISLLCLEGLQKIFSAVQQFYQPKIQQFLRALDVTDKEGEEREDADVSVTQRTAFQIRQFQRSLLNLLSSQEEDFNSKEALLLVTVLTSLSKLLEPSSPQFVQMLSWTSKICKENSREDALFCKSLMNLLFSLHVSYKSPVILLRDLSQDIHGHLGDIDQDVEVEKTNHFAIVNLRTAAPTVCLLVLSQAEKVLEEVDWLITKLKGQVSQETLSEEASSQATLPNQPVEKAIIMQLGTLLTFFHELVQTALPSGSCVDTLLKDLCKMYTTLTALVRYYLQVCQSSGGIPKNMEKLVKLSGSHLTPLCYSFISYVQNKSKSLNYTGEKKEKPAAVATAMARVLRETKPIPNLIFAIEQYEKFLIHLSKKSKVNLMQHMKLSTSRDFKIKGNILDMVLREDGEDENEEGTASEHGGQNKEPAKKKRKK
# UniProt Q9NQG7: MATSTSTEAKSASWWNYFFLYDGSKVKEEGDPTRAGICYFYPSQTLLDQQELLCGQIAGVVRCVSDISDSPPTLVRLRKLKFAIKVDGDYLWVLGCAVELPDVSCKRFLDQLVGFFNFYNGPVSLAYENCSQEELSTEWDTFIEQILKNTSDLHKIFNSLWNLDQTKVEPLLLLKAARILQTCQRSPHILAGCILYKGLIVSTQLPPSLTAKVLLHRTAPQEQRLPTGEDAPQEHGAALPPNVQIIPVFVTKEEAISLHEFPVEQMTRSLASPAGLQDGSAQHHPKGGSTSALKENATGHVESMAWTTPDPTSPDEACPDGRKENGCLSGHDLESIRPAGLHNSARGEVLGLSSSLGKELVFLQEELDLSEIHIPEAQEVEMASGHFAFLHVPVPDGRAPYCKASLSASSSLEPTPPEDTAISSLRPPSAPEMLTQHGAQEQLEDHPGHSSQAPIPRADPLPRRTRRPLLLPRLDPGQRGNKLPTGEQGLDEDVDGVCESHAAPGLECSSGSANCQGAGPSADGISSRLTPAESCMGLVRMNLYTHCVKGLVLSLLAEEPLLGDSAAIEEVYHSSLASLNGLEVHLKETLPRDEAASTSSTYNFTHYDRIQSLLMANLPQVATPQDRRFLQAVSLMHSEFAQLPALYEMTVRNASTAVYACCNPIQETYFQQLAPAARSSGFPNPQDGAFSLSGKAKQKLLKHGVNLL
# UniProt Q9NRS6: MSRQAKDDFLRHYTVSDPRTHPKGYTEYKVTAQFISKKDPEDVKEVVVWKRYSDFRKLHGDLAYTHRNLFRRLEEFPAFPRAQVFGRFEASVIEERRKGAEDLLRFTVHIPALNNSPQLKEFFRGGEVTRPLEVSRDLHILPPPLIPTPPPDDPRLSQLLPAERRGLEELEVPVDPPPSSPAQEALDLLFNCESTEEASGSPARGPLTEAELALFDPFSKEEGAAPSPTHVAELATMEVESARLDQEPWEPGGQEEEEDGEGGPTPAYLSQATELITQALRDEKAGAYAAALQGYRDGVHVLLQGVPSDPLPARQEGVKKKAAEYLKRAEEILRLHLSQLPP
# UniProt Q9NV70: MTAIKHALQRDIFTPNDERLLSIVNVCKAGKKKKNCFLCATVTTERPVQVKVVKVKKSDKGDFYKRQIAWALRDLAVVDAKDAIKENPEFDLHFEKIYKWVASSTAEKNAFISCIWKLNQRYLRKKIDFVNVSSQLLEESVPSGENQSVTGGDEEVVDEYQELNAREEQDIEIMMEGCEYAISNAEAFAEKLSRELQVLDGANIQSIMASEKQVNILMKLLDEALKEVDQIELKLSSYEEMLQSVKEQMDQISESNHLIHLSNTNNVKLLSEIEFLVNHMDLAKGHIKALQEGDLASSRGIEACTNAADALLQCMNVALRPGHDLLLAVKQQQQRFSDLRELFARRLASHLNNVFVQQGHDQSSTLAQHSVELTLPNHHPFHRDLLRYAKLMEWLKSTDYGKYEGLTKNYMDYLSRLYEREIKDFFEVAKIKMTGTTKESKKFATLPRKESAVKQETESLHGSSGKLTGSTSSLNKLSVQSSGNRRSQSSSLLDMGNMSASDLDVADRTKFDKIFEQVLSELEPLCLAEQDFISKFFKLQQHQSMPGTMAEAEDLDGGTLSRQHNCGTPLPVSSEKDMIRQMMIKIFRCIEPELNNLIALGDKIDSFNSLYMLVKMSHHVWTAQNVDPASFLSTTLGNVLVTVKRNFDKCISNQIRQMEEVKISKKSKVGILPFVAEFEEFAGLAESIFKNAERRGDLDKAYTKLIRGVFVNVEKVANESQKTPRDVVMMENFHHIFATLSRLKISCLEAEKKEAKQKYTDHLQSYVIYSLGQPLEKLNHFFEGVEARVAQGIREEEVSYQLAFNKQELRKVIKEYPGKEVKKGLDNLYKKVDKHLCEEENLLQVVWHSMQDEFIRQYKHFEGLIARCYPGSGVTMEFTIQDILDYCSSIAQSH
# UniProt Q9P013: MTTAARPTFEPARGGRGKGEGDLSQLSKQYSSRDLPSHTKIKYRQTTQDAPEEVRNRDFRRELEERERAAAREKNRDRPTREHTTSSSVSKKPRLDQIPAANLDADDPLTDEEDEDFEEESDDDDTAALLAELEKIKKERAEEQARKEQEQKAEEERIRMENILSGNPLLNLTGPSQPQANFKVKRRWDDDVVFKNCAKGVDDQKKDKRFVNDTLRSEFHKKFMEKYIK
# UniProt Q9NVQ4: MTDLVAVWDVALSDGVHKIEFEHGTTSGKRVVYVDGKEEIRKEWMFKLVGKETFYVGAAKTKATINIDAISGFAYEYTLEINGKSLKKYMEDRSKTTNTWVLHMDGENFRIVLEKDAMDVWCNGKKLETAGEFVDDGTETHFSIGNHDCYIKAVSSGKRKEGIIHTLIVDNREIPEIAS
# ± gives the standard deviation of the averaged measurements. The entries are a selection whose mix differs from that of the whole data set.
# Compound: Nc1ncnc2c1ncn2[C@@H]1O[C@H](COP(=O)(O)OP(=O)(O)OP(=O)(O)O)[C@@H](O)[C@H]1O [adenosine triphosphate]
# Assay: NP40-soluble protein abundance relative to vehicle (solubility fold change) (ratio); higher = more soluble protein in presence of ATP
# Summary of the method: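 Eight concentrations, 0.1 to 10 mM, were tested on Jurkat crude lysate for 10 min at room temperature and then 3 min at 37 °C, in three independent experiments. The lysate was solubilised with 0.8% NP40 and benzonase, ultracentrifuged, and the supernatant TMT-labelled for LC-MS/MS. Each value is the fold change against the detergent-processed vehicle in its own replicate, from vsn-normalised intensities.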
Target,NP40-soluble protein abundance (concentration: 1mM),NP40-soluble protein abundance (concentration: 2mM),NP40-soluble protein abundance (concentration: 4mM),NP40-soluble protein abundance (concentration: 6mM),NP40-soluble protein abundance (concentration: 8mM),NP40-soluble protein abundance (concentration: 10mM)
UniProt Q9P0B6,0.863 ± 0.17,0.854 ± 0.058,0.791 ± 0.093,0.782 ± 0.16,0.733 ± 0.047,0.58 ± 0.29
UniProt Q9NV88 and related entries,1.05 ± 0.067,1.04 ± 0.046,1.03 ± 0.052,1.05 ± 0.024,1.11 ± 0.022,1.08 ± 0.057
UniProt Q9NZM5,0.916 ± 0.11,0.927 ± 0.071,0.96 ± 0.041,0.918 ± 0.03,0.849 ± 0.027,0.832 ± 0.034
UniProt Q9NQX3 and related entries,0.979 ± 0.018,0.9653 ± 0.0058,0.9589 ± 0.0084,0.972 ± 0.015,0.944 ± 0.015,0.953 ± 0.013
Q9NPA5 and related entries (UniProt Q9NTW7),0.992 ± 0.033,0.985 ± 0.065,0.97 ± 0.088,0.919 ± 0.026,1.04 ± 0.043,1.02 ± 0.12
NIT2 (UniProt Q9NQR4),0.99 ± 0.031,0.974 ± 0.058,0.929 ± 0.04,0.994 ± 0.093,0.954 ± 0.057,0.955 ± 0.063
UniProt Q9NVH2 and related entries,1.03 ± 0.078,1.02 ± 0.037,1.032 ± 0.0079,0.972 ± 0.036,1.06 ± 0.061,1.11 ± 0.027
UniProt Q9NWV8,0.945 ± 0.079,0.962 ± 0.039,0.925 ± 0.021,0.98 ± 0.042,0.939 ± 0.028,0.946 ± 0.0095
THG1L (UniProt Q9NWX6),1.09 ± 0.17,1.07 ± 0.086,1.09 ± 0.072,1 ± 0.055,1.08 ± 0.13,0.996 ± 0.18
ASF1B (UniProt Q9NVP2),1.04 ± 0.076,1.03 ± 0.11,1 ± 0.043,0.995 ± 0.1,1.04 ± 0.048,0.996 ± 0.089
UniProt Q9NPG3 and related entries,1.12 ± 0.13,1.07 ± 0.11,1.11 ± 0.066,1.17 ± 0.11,1.12 ± 0.15,1.21 ± 0.077
UniProt Q9NSB8 and related entries,0.949 ± 0.073,1.1 ± 0.017,1.04 ± 0.088,1.09 ± 0.088,1.07 ± 0.13,1.11 ± 0.059
UniProt Q9NYR9 and related entries,1.105 ± 0.0076,1.13 ± 0.031,1.11 ± 0.041,1.12 ± 0.055,1.067 ± 0.0084,1.08 ± 0.011
TMEM9B (UniProt Q9NQ34),0.946 ± 0.055,0.928 ± 0.07,0.942 ± 0.014,0.944 ± 0.088,0.928 ± 0.0098,0.89 ± 0.043
UniProt Q9NRR4 and related entries,1.29 ± 0.19,1.41 ± 0.1,1.39 ± 0.28,1.39 ± 0.24,1.37 ± 0.26,1.42 ± 0.26
UBQLN4 (UniProt Q9NRR5),1 ± 0.013,1.02 ± 0.051,0.973 ± 0.032,1.01 ± 0.11,0.957 ± 0.035,0.91 ± 0.044
PHPT1 (UniProt Q9NRX4),1.05 ± 0.087,0.9894 ± 0.0074,0.98 ± 0.027,0.999 ± 0.045,0.968 ± 0.037,0.949 ± 0.029
UTP3 (UniProt Q9NQZ2),0.927 ± 0.05,0.941 ± 0.011,0.931 ± 0.022,0.941 ± 0.04,0.911 ± 0.015,0.922 ± 0.027
UniProt Q9NRG9 and related entries,1.06 ± 0.083,1.03 ± 0.1,1.02 ± 0.061,1.04 ± 0.097,1.05 ± 0.1,1.01 ± 0.12
CNOT2 (UniProt Q9NZN8),1.17 ± 0.018,1.18 ± 0.023,1.23 ± 0.043,1.32 ± 0.092,1.28 ± 0.035,1.32 ± 0.026
INTS10 (UniProt Q9NVR2),1.1 ± 0.087,1.03 ± 0.046,1.08 ± 0.028,0.9775 ± 0.0049,1.07 ± 0.053,1.11 ± 0.067
OXSM (UniProt Q9NWU1),1.06 ± 0.091,1.05 ± 0.058,1.05 ± 0.068,1.04 ± 0.092,1.05 ± 0.047,1.03 ± 0.016
MRPL15 (UniProt Q9P015),1.13 ± 0.14,0.976 ± 0.11,0.938 ± 0.079,0.97 ± 0.28,0.967 ± 0.2,0.896 ± 0.14
TMEM160 (UniProt Q9NX00),1.12 ± 0.067,1.09 ± 0.14,1.14 ± 0.19,1.14 ± 0.12,1.2 ± 0.15,1.2 ± 0.065
USE1 (UniProt Q9NZ43),0.95 ± 0.051,0.984 ± 0.014,0.986 ± 0.039,1.03 ± 0.08,0.987 ± 0.039,0.973 ± 0.027

# As a working copy, part of the list above.
Target,NP40-soluble protein abundance (concentration: 1mM),NP40-soluble protein abundance (concentration: 2mM),NP40-soluble protein abundance (concentration: 4mM),NP40-soluble protein abundance (concentration: 6mM),NP40-soluble protein abundance (concentration: 8mM),NP40-soluble protein abundance (concentration: 10mM)
ASF1B (UniProt Q9NVP2),1.04 ± 0.076,1.03 ± 0.11,1 ± 0.043,0.995 ± 0.1,1.04 ± 0.048,0.996 ± 0.089
UniProt Q9NPG3 and related entries,1.12 ± 0.13,1.07 ± 0.11,1.11 ± 0.066,1.17 ± 0.11,1.12 ± 0.15,1.21 ± 0.077
UniProt Q9NSB8 and related entries,0.949 ± 0.073,1.1 ± 0.017,1.04 ± 0.088,1.09 ± 0.088,1.07 ± 0.13,1.11 ± 0.059

# Continuation.

Target,NP40-soluble protein abundance (concentration: 1mM),NP40-soluble protein abundance (concentration: 2mM),NP40-soluble protein abundance (concentration: 4mM),NP40-soluble protein abundance (concentration: 6mM),NP40-soluble protein abundance (concentration: 8mM),NP40-soluble protein abundance (concentration: 10mM)
UniProt Q9NXN4 and related entries,0.96 ± 0.043,0.96 ± 0.049,0.975 ± 0.077,0.942 ± 0.11,0.938 ± 0.07,0.96 ± 0.063
ZBTB40 (UniProt Q9NUA8),0.977 ± 0.024,1.01 ± 0.03,0.965 ± 0.064,0.933 ± 0.067,0.925 ± 0.025,0.917 ± 0.027
DYNLRB1 (UniProt Q9NP97),0.99 ± 0.01,0.981 ± 0.041,0.971 ± 0.022,0.97 ± 0.035,0.975 ± 0.061,0.928 ± 0.052
FANCI (UniProt Q9NVI1),0.993 ± 0.098,0.977 ± 0.067,0.958 ± 0.051,0.939 ± 0.078,0.969 ± 0.037,0.979 ± 0.036
AGPAT5 (UniProt Q9NUQ2),1.08 ± 0.083,1.03 ± 0.051,1.06 ± 0.029,1.056 ± 0.008,1.11 ± 0.05,1.06 ± 0.066
UniProt Q9NUP9,0.975 ± 0.032,0.991 ± 0.033,0.965 ± 0.04,0.962 ± 0.02,0.955 ± 0.0061,0.885 ± 0.046
TMEM106B (UniProt Q9NUM4),0.909 ± 0.11,1.01 ± 0.067,1.03 ± 0.061,0.97 ± 0.087,0.943 ± 0.055,0.96 ± 0.052
UniProt Q9P1Z2 and related entries,0.943 ± 0.075,0.975 ± 0.033,0.959 ± 0.046,0.98 ± 0.034,0.938 ± 0.051,0.935 ± 0.039
GPCPD1 (UniProt Q9NPB8),1.04 ± 0.068,1.01 ± 0.049,1.08 ± 0.063,1.08 ± 0.12,0.951 ± 0.042,0.982 ± 0.068
UniProt Q9NR31-2|Q9NR31,0.925 ± 0.1,0.898 ± 0.064,0.856 ± 0.016,0.853 ± 0.12,0.893 ± 0.046,0.865 ± 0.027
UCKL1 (UniProt Q9NWZ5),0.99 ± 0.014,0.962 ± 0.02,0.971 ± 0.017,0.899 ± 0.019,0.938 ± 0.025,0.95 ± 0.071
UniProt Q9NPA0,0.937 ± 0.033,0.959 ± 0.024,0.914 ± 0.022,0.927 ± 0.026,0.931 ± 0.018,0.948 ± 0.021
MDN1 (UniProt Q9NU22),0.859 ± 0.025,0.856 ± 0.018,0.895 ± 0.022,0.885 ± 0.048,0.968 ± 0.03,0.975 ± 0.036
HPS4 (UniProt Q9NQG7),0.951 ± 0.065,0.917 ± 0.06,1.04 ± 0.048,1.03 ± 0.093,1.03 ± 0.093,0.979 ± 0.094
UniProt Q9NVH0 and related entries,1.01 ± 0.063,1 ± 0.024,1.02 ± 0.059,1.03 ± 0.03,1 ± 0.025,1.1 ± 0.067
SNX15 (UniProt Q9NRS6),0.983 ± 0.044,0.975 ± 0.041,1 ± 0.05,0.919 ± 0.068,0.9726 ± 0.0068,0.956 ± 0.012
BSDC1 (UniProt Q9NW68),0.924 ± 0.024,0.913 ± 0.015,0.909 ± 0.013,0.969 ± 0.019,0.916 ± 0.051,0.873 ± 0.041
UniProt Q9NRW1,1 ± 0.12,1.01 ± 0.055,0.989 ± 0.053,0.956 ± 0.093,0.941 ± 0.045,1.03 ± 0.1
NUDT4 (UniProt Q9NZJ9),0.975 ± 0.027,0.94 ± 0.052,0.994 ± 0.049,0.88 ± 0.04,0.964 ± 0.031,0.919 ± 0.11
UniProt Q9NRA8 and related entries,1.01 ± 0.075,1 ± 0.077,1.04 ± 0.038,1.07 ± 0.092,1.01 ± 0.019,1.05 ± 0.056
UniProt Q9NV70 and related entries,1.08 ± 0.095,1.03 ± 0.04,1.03 ± 0.041,1.02 ± 0.048,1.05 ± 0.051,1.02 ± 0.052
CWC15 (UniProt Q9P013),0.943 ± 0.11,0.922 ± 0.07,0.92 ± 0.08,0.978 ± 0.092,1.04 ± 0.03,0.989 ± 0.1
MRPL40 (UniProt Q9NQ50),1.05 ± 0.15,0.984 ± 0.088,0.998 ± 0.17,1.03 ± 0.3,1.04 ± 0.21,0.97 ± 0.12
UniProt Q9NVQ4 and related entries,1.1 ± 0.063,1.15 ± 0.24,1.11 ± 0.1,0.969 ± 0.065,1.04 ± 0.14,1.03 ± 0.031
